# PubChem BioAssay AID743121 – NCATS, 2013
# Aim: 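Genes whose silencing strengthens cell killing by camptothecin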 (primary screen)
# System: MDA-MB-231 cells, a human breast cancer line
# Reagent: single siRNA against human genes, 20 nM siRNA (0.8 pmol per well)
# Duration: 120 h (drug added 48 h after transfection, read 72 h later)
# Treatment: camptothecin 20 nM (about EC30) for 72 h; vehicle 0.1% DMSO in parallel plates
# Measured: 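Cell viability by ATP luminescence (CellTiter-Glo) as % of non-targeting siRNA wells, and the log2 ratio of viability without drug over viability with camptothecin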
# Scale: log2 vehicle/camptothecin viability: higher = stronger sensitisation to camptothecin
# Hit rule: 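Each gene scored by redundant siRNA activity (RSA) over its individual siRNA ratios; a gene is called active at p < 0.001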
# In all, the deposit lists about 26,000 reagents; this is a part drawn at random. Of all reagents, 167 (0.63%) were called active. 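Calls are per gene from RSA p-values that are not deposited; an individual active-marked siRNA can sensitise only weakly.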 Reagents against one gene are numbered here. Not all columns of the deposit are shown.
gene symbol,reagent no.,log2 vehicle/camptothecin viability,activity call
PKLR,1,0.367,inactive
PKLR,2,0.116,inactive
PKLR,3,0.406,inactive
PKLR,4,-0.102,inactive
TXN2,1,-0.479,inactive
TXN2,2,-0.572,inactive
TXN2,3,-0.0759,inactive
TXN2,4,-0.514,inactive
CACNA1D,1,-0.16,inactive
CACNA1D,2,-0.132,inactive
CACNA1D,3,-0.498,inactive
CACNA1D,4,0.213,inactive
RRM2B,1,0.244,inactive
RRM2B,2,-0.22,inactive
RRM2B,3,-0.0955,inactive
RRM2B,4,0.233,inactive
IRF2BP2,1,-0.14,inactive
IRF2BP2,2,-0.675,inactive
IRF2BP2,3,-0.274,inactive
SHBG,1,0.00729,inactive
SHBG,2,-0.0862,inactive
SHBG,3,-0.571,inactive
SHBG,4,-0.242,inactive
TRIM48,1,0.0684,inactive
TRIM48,2,-0.193,inactive
TRIM48,3,-0.502,inactive
NMI,1,-0.245,inactive
NMI,2,0.416,inactive
NMI,3,0.0549,inactive
NMI,4,-0.196,inactive
RAP1A,1,-0.34,inactive
RAP1A,2,0.0666,inactive
RAP1A,3,-0.13,inactive
FKBP1A,1,0.064,inactive
FKBP1A,2,-0.141,inactive
FKBP1A,3,0.0161,inactive
FKBP1A,4,-0.0198,inactive
FKBP1A,5,-0.338,inactive
FKBP1A,6,0.398,inactive
FKBP1A,7,-0.12,inactive
FKBP1A,8,-0.306,inactive
CTSL,1,0.14,inactive
CTSL,2,-0.0356,inactive
CTSL,3,-0.296,inactive
CTSL,4,-0.314,inactive
LEFTY1,1,-0.00838,inactive
LEFTY1,2,-0.147,inactive
LEFTY1,3,-0.0201,inactive
OR10AD1,1,-0.115,inactive
OR10AD1,2,-0.319,inactive
OR10AD1,3,-0.622,inactive
OR10AD1,4,-0.316,inactive
IL5,1,-0.16,inactive
IL5,2,0.1,inactive
IL5,3,-0.241,inactive
IL5,4,-0.455,inactive
BMP2K,1,0.112,inactive
BMP2K,2,-0.0193,inactive
BMP2K,3,0.393,inactive
BMP2K,4,-0.118,inactive
TRIML2,1,-0.101,inactive
TRIML2,2,-0.251,inactive
TRIML2,3,0.207,inactive
TRIML2,4,-0.134,inactive
UBE2N,1,0.195,inactive
UBE2N,2,-0.299,inactive
UBE2N,3,-0.341,inactive
UBE2N,4,0.125,inactive

Copied from the list.
For “activity call”, NMI #3 shows inactive
For “activity call”, FKBP1A #3 shows inactive
TXN2 #1, activity call: inactive
Under “activity call”, NMI #2 shows inactive
LEFTY1 #2, log2 vehicle/camptothecin viability → -0.147
LEFTY1 #3, activity call = inactive
